No constants are given. Whether binding was seen depends on the method and setting. Binding seen in cells or lysates may run through a third protein. A yes stands for co-enrichment or nearness to the bait. Other partners may have been found. Where a sequence is shown, tags or fusion partners need not be part of it.
Target: T1, Mic19-Flag (human) (UniProt Q9NX63)
T1 sequence: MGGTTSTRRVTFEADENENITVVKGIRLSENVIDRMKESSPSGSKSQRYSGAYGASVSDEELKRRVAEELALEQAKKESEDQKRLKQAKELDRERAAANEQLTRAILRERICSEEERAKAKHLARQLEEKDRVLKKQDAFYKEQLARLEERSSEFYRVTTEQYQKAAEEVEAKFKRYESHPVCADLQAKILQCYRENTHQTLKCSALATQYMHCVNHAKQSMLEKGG
Assay: affinity purification with mass spectrometry

- binding: binds
B1: Sam50 (endogenous) (protein, UniProt Q9Y512 1-469)
chain: MGTVHARSLEPLPSSGPDFGGLGEEAEFVEVEPEAKQEILENKDVVVQHVHFDGLGRTKDDIIICEIGDVFKAKNLIEVMRKSHEAREKLLRLGIFRQVDVLIDTCQGDDALPNGLDVTFEVTELRRLTGSYNTMVGNNEGSMVLGLKLPNLLGRAEKVTFQFSYGTKETSYGLSFFKPRPGNFERNFSVNLYKVTGQFPWSSLRETDRGMSAEYSFPIWKTSHTVKWEGVWRELGCLSRTASFAVRKESGHSLKSSLSHAMVIDSRNSSILPRRGALLKVNQELAGYTGGDVSFIKEDFELQLNKQLIFDSVFSASFWGGMLVPIGDKPSSIADRFYLGGPTSIRGFSMHSIGPQSEGDYLGGEAYWAGGLHLYTPLPFRPGQGGFGELFRTHFFLNAGNLCNLNYGEGPKAHIRKLAECIRWSYGAGIVLRLGNIARLELNYCVPMGVQTGDRICDGVQFGAGIRFL

Source: paper doi:10.1101/345959
